PubChem BioAssay AID1259425, University of Nebraska Medical Center, 2018
Purpose: 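Compare each knockdown with KSR1 silencing using changes in marker transcripts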 (primary screen). Cell system: HCT116 human colon cancer cells. Reagents: siRNA pool against human genes, 50 nM siRNA. Measurement: 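After 50 nM siRNA pool, branched-DNA assay measures six marker transcripts per well, minus blank, normalised to the geometric mean of two housekeeping transcripts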. Direction: BNIP3L mRNA: higher = more BNIP3L transcript after knockdown.
This is a random part of about 14,000 deposited reagents. A reagent listed more than once was tested more than once; the source does not tell the runs apart. Further read-outs or replicates are left out here. No sequences are given here. The record does not give: the time to read-out.

The first 3 entries, to show the layout:
| gene symbol | BNIP3L mRNA, set 1 |
| --- | --- |
| SUSD6 (sushi domain containing 6) | 0.0589 |
| H2AB3 (H2A.B variant histone 3) | 0.0718 |
| DLL1 (delta like canonical Notch ligand 1) | 0.0832 |

The list itself, from the start:
| gene symbol | BNIP3L mRNA, set 1 |
| --- | --- |
| SUSD6 (sushi domain containing 6) | 0.0589 |
| H2AB3 (H2A.B variant histone 3) | 0.0718 |
| DLL1 (delta like canonical Notch ligand 1) | 0.0832 |
| SCUBE1 (signal peptide, CUB domain and EGF like domain containing 1) | 0.152 |
| EHHADH (enoyl-CoA hydratase and 3-hydroxyacyl CoA dehydrogenase) | 0.0826 |
| ZNF462 (zinc finger protein 462) | 0.39 |
| ERLIN1 (ER lipid raft associated 1) | 0.165 |
| CRELD1 (CRELD disulfide isomerase 1) | 0.19 |
| OIP5 (Opa interacting protein 5) | 0.127 |
| BEST2 (bestrophin 2) | 0.0933 |
| LXN (latexin) | 0.151 |
| LAMC1 (laminin subunit gamma 1) | 0.0941 |
| PTPN23 (protein tyrosine phosphatase non-receptor type 23) | 0.262 |
| NOX1 (NADPH oxidase 1) | 0.0554 |
| GCM2 (GCM transcription factor 2) | 0.171 |
| SF3B2 (splicing factor 3b subunit 2) | 0.128 |
| RARB (retinoic acid receptor beta) | 0.074 |
| RARB (retinoic acid receptor beta) | 0.137 |
| USP32 (ubiquitin specific peptidase 32) | 0.216 |
| VEZT (vezatin, adherens junctions transmembrane protein) | 0.106 |
| PDZRN3 (PDZ domain containing ring finger 3) | 0.0623 |
| RPL11 (ribosomal protein L11) | 0.105 |
| NUDT2 (nudix hydrolase 2) | 0.252 |
| GBA2 (glucosylceramidase beta 2) | 0.179 |
| COL17A1 (collagen type XVII alpha 1 chain) | 0.106 |
| MOK (MOK protein kinase) | 0.0637 |
| GYS2 (glycogen synthase 2) | 0.134 |
| RIPK2 (receptor interacting serine/threonine kinase 2) | 0.102 |
| USB1 (U6 snRNA biogenesis phosphodiesterase 1) | 0.0622 |
| LY9 (lymphocyte antigen 9) | 0.0538 |
| XAGE1B (X antigen family member 1B) | 0.118 |
| ZXDC (ZXD family zinc finger C) | 0.105 |
| ABI2 (abl interactor 2) | 0.097 |
| RAB9BP1 (RAB9B, member RAS oncogene family pseudogene 1) | 0.0301 |
| NDUFAF7 (NADH:ubiquinone oxidoreductase complex assembly factor 7) | 0.121 |
| TNFRSF1A (TNF receptor superfamily member 1A) | 0.106 |
| KLHL41 (kelch like family member 41) | 0.11 |
| REPIN1 (replication initiator 1) | 0.0775 |
| PTPRN (protein tyrosine phosphatase receptor type N) | 0.0622 |
| ORC2 (origin recognition complex subunit 2) | 0.146 |
| PSMA1 (proteasome 20S subunit alpha 1) | 0.307 |
| UNC50 (unc-50 inner nuclear membrane RNA binding protein) | 0.103 |
| GBP3 (guanylate binding protein 3) | 0.0876 |
| CLCA2 (chloride channel accessory 2) | 0.0842 |
| RRAGC (Ras related GTP binding C) | 0.178 |
| SRRM2 (serine/arginine repetitive matrix 2) | 0.17 |
| GCNA (germ cell nuclear acidic peptidase) | 0.134 |
| ATP5PO (ATP synthase peripheral stalk subunit OSCP) | 0.0609 |
| TALDO1 (transaldolase 1) | 0.0753 |
| KCNS1 | 0.172 |
